In publication PMC7489044:
These are yes or no findings as the source states them, for the method shown. Binding seen in cells or lysates may run through a third protein. Some binding calls cover weakened binding; strength is not graded here.

Sequences of proteins named here, by UniProt entry; tags and fusion partners are left off. Residues count along the entry.
UniProt O00254, residues 39-374: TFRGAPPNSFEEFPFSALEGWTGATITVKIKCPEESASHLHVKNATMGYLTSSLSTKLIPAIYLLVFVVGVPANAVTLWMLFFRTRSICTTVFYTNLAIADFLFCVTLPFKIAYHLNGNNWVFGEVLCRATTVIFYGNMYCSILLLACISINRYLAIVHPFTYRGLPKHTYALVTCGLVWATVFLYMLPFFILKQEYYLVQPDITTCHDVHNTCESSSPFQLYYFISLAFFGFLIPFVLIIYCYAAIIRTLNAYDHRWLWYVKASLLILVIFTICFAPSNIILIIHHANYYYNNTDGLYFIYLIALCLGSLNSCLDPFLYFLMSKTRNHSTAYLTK

Target: protease-activated receptor-3 (human (endogenous in EA.hy926)) (UniProt O00254)
Assay: co-IP; EA.hy926 cells, untreated or treated with 100 nM TFG or TFMG for 24 h, lysed in RIPA buffer; anti-PAR-3 antibody overnight at 4 °C, magnetic beads 4 h at 4 °C; western blot with anti-PAR-1 antibody

- binding: binds
B1: protease-activated receptor-1 (receptor, UniProt P25116 42-425)
chain: SFLLRNPNDKYEPFWEDEEKNESGLTEYRLVSINKSSPLQKQLPAFISEDASGYLTSSWLTLFVPSVYTGVFVVSLPLNIMAIVVFILKMKVKKPAVVYMLHLATADVLFVSVLPFKISYYFSGSDWQFGSELCRFVTAAFYCNMYASILLMTVISIDRFLAVVYPMQSLSWRTLGRASFTCLAIWALAIAGVVPLLLKEQTIQVPGLNITTCHDVLNETLLEGYYAYYFSAFSAVFFFVPLIISTVCYVSIIRCLSSSAVANRSKKSRALFLSAAVFCIFIICFGPTNVLLIAHYSFLSHTSTTEAAYFAYLLCVCVSSISCCIDPLIYYYASSECQRYVYSILCCKESSDPSSYNSSGQLMASKMDTCSSNLNNSIYKKLLT
